Test [1] relates to SARS-CoV-2 -1 PRF reporter mCherry-FSE-GFP(-1). The experiment in a line: mCherry (red) intensity as percent of control; higher = higher upstream reporter expression. The following applies: 10 µM; 24 h; HEK293T.
Test [2] shares this test system. The test can be described thus: percent effect, decrease of GFP/mCherry ratio (-1 PRF reporter) relative to controls; higher = stronger frameshift inhibition. The following applies: 10 µM; 24 h; HEK293T.

“And” between values parts separate entries of the source, which are not always exact repeats. Identical values can stand only once. The list shows a part of the results. Repeats in this data set agree poorly, so a single value says little.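 HEK293T cells were given each compound shortly before transfection with a reporter in which red mCherry is followed by the SARS-CoV-2 frameshift element and then GFP in the −1 frame, so GFP appears only after frameshifting.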

Take `CN1CCCN=C1/C=C/c1cccs1` [Pyrantel Pamoate]: the mCherry in test [1] came to 90.8%. In addition, in test [2], the percent effect is -2.89%.

Compound `Cc1cccc(Nc2ccncc2S(=O)(=O)NC(=O)NC(C)C)c1` [torasemide] showed a mCherry in test [1] of 103%. Moreover, the percent effect in test [2] was -1.44%.

For `NC(=O)c1ccc[n+]([C@@H]2O[C@H](COP(=O)([O-])OP(=O)(O)OC[C@H]3O[C@@H](n4cnc5c(N)ncnc54)[C@H](O)[C@@H]3O)[C@@H](O)[C@H]2O)c1`, the mCherry in test [1] worked out at 76.9%. The percent effect in test [2] was -4.17%.

As for `Cc1nccn1CC1CCc2c(c3ccccc3n2C)C1=O` (stereo not given) [ondansetron], in test [1], the mCherry stood at 72.5%. Besides, the percent effect in test [2] was -3.21%.

For the compound `CN1C(=O)CC[C@H]1c1cccnc1` [cotinine], in test [1], the mCherry is 96.9%. For the same compound, the percent effect in test [2] is -3.43%.

Regarding `CCOC(=O)[N-]c1c[n+](N2CCOCC2)no1` [Molsidomine], the mCherry in test [1] worked out at 105%. In test [2], the percent effect is 0.839%.

Compound `O=C(C[C@H](CSc1ccccc1)C(=O)O)c1ccc(-c2ccc(Cl)cc2)cc1` [tanomastat] displayed a mCherry in test [1] of 79%. Moreover, the percent effect in test [2] stood at 1.66%.

In the case of `N#Cc1ccc(C(c2ccc(C#N)cc2)n2cncn2)cc1` [letrozole], the mCherry in test [1] is 97.7% and 95.4%. In addition, the percent effect in test [2] was -2.84% and -3.01%.

In test [1], `C=Cc1c(C)c2cc3[nH]c(cc4nc(cc5nc(cc1[nH]2)C(C)=C5CCC(=O)O)C(CCC(=O)O)=C4C)c(C)c3C=C` had a mCherry of 121%. In addition, the percent effect in test [2] was -3.3%.

On to `C[C@H](CCC(=O)O)[C@H]1CC[C@H]2[C@@H]3[C@H](O)C[C@@H]4C[C@H](O)CC[C@]4(C)[C@H]3CC[C@]12C` [chenodeoxycholic acid], for which the mCherry in test [1] is 119% and 106%. The percent effect in test [2] is -0.982% and -1.53%.

Take `CN(C)[C@@H]1C(=O)C(C(=O)NCN2CCCC2)=C(O)[C@@]2(O)C(=O)C3=C(O)c4c(O)cccc4[C@@](C)(O)[C@H]3C[C@@H]12`: the mCherry in test [1] came to 120%. Besides, the percent effect in test [2] was found to be 2.64%.

`CC(=O)Nc1cccc(O)c1` [metacetamol] came in with a mCherry in test [1] of 70.4%. Moreover, the percent effect in test [2] was -3.7%.

As to `NNC(=O)c1ccncc1.Nc1ccc(C(=O)O)c(O)c1` [pasiniazid], in test [1], the mCherry was determined as 85.9%. In addition, the percent effect in test [2] was -2.66%.

With `CNCCCC1(c2ccccc2)SC(C)(C)c2ccccc21` (stereo not given) [talsupram], the mCherry in test [1] is 93.3%. In addition, the percent effect in test [2] was determined as 9.98%.

As for `O=C1CN2Cc3c(ccc(Cl)c3Cl)N=C2N1`, the mCherry in test [1] was 129%. In test [2], the percent effect was 1.65%.

`C=C1/C(=C\C=C2/CCC[C@]3(C)[C@@H]([C@H](C)/C=C/C=C/C(O)(CC)CC)CC[C@@H]23)C[C@@H](O)C[C@@H]1O` [seocalcitol] gave a mCherry in test [1] of 85.2%. For the same compound, the percent effect in test [2] was -5.75%.

For `C=CCOC(Cn1ccnc1)c1ccc(Cl)cc1Cl` (stereo not given) [enilconazole], in test [1], the mCherry worked out at 93.4%. The percent effect in test [2] is 1.38%.

With `CCCN(CCC)S(=O)(=O)c1ccc(C)cc1` [ditolamide], in test [1], the mCherry is 63.8%. In addition, in test [2], the percent effect is -6.55%.

Turning to `CNCC[C@@H](Oc1ccccc1C)c1ccccc1` [Atomoxetine, Strattera,Tomoxetin], in test [1], the mCherry came out at 70.1%. The percent effect in test [2] is 1.57%.

On to `C[C@H](NC(=O)c1cnc2n1[C@](C)(Cc1ccc(C#N)cc1)C(=O)N2c1cc(Cl)c(F)c(Cl)c1)C(=O)NC1(c2ccccn2)CC1`, for which, in test [1], the mCherry amounted to 43.4%. The percent effect in test [2] is 1.21%.

`CC(=O)OCC(=O)[C@@]1(O)CC[C@H]2[C@@H]3CCC4=CC(=O)CC[C@]4(C)[C@H]3[C@@H](O)C[C@@]21C` yielded a mCherry in test [1] of 111%. Further, in test [2], the percent effect was -13.6%.

Take `CC(C)N1CCN(c2ccc(OCC3COC(Cn4cncn4)(c4ccc(Cl)cc4Cl)O3)cc2)CC1` (stereo not given) [terconazole]: the mCherry in test [1] is 107%. Besides, the percent effect in test [2] was -1.16%.

In test [1], `NC(=O)[C@@H]1CCCN1C(=O)[C@H](Cc1c[nH]cn1)NC(=O)[C@@H]1CCC(=O)N1` showed a mCherry of 85.3%. Moreover, the percent effect in test [2] was -1.6%.

With `O=S(=O)(c1cccc2cnccc12)N1CCCNCC1` [fasudil], the mCherry in test [1] turned out to be 55.1%. Besides, the percent effect in test [2] was -10.1%.

Turning to `C#C[C@]1(O)CC[C@H]2[C@@H]3CCC4=CCCC[C@@H]4[C@H]3C(=C)C[C@@]21CC` [desogestrel], in test [1], the mCherry came out at 105%. The percent effect in test [2] is -9.18%.

In test [1], `C=C1/C(=C\C=C2/CCC[C@]3(C)[C@@H]([C@H](C)CC[C@@H](O)C(C)C)CC[C@@H]23)C[C@@H](O)C[C@@H]1O` [tacalcitol] registered a mCherry of 47.7%. Besides, the percent effect in test [2] worked out at 1.79%.

Regarding `CCCc1ncc(C[n+]2ccccc2C)c(N)n1` [amprolium], the mCherry in test [1] stood at 111%. The percent effect in test [2] came to 6.2%.

In test [1], `CCCCCCCCCCCCCCCC(=O)OC[C@H](O)[C@H]1OC(=O)C(O)=C1O` gave a mCherry of 90.5%. In test [2], the percent effect was -2.13%.

Regarding `CCN(CC)C(=O)C1CN2CCc3cc(OC)c(OC)cc3C2CC1OC(C)=O` (stereo not given) [benzquinamide], the mCherry in test [1] came to 101%. The percent effect in test [2] is -9.21%.

In test [1], `COc1cc(C(=O)NCCCCCC(=O)O)cc(OC)c1OC` [capobenic acid] returned a mCherry of 91.2%. In test [2], the percent effect is -0.864%.

As to `CC(C(=O)O)c1ccc(-c2cn3ccccc3n2)cc1` (stereo not given) [miroprofen], the mCherry in test [1] was 78%. The percent effect in test [2] was -3.06%.

In test [1], `CN(C)CCN(Cc1ccc(Cl)cc1)c1ccccn1` displayed a mCherry of 101%. In test [2], the percent effect is -0.793%.

`Cc1cccc(C)c1NC(=O)/N=C1\CCCN1C` [xilobam] returned a mCherry in test [1] of 98.7%. Moreover, the percent effect in test [2] was -1.39%.

On to `O=C(NCCc1ccc(O)c(O)c1)C12CC3CC(CC(C3)C1)C2` [dopamantine], for which, in test [1], the mCherry amounted to 97.9%. The percent effect in test [2] is -1.67%.

On to `CC(C)(C)CC(C)(C)c1ccc(O)c(-n2nc3ccccc3n2)c1` [octrizole], for which the mCherry in test [1] was found to be 88.6%. In test [2], the percent effect came out at 1.94%.

For the compound `CC1CCc2cc(F)cc3c(=O)c(C(=O)O)cn1c23` (stereo not given) [flumequine], the mCherry in test [1] is 121%. The percent effect in test [2] was -1.34%.

In test [1], `C[N+]12CCCCC1CCC(=C(c1cccs1)c1cccs1)C2` (stereo not given) [tiquizium bromide] returned a mCherry of 125%. For the same compound, the percent effect in test [2] was -0.0679%.

Compound `NC(=O)c1ccc(F)c2c1C[C@@H](N(C1CCC1)C1CCC1)CO2` [robalzotan] returned a mCherry in test [1] of 105%. The percent effect in test [2] was 0.466%.

Compound `CC(C(=O)O)c1ccc(CC2CCCC2=O)cc1` (stereo not given) displayed a mCherry in test [1] of 108%. The percent effect in test [2] is -4.34%.

`CCCOc1ccc(C(=O)CCN2CCCCC2)cc1` [propipocaine] came in with a mCherry in test [1] of 85.5%. In addition, the percent effect in test [2] was -2.64%.

Consider `CN(C)CCCOc1nn(Cc2ccccc2)c2ccccc12` [benzydamine], for which the mCherry in test [1] is 106% and 95.7%. Further, in test [2], the percent effect is -2.5% and -9.86%.

`CN1CCN(C2=Nc3ccccc3Oc3ccc(Cl)cc32)CC1` [loxapine]: the mCherry in test [1] amounted to 106%. Also, in test [2], the percent effect is -3.41%.

In test [1], `Cc1nc2ccccc2n1Cc1ccc(Cl)cc1` [chlormidazole] gave a mCherry of 103%. Further, in test [2], the percent effect is -9.6%.

For `CN(C)c1cc(NC(=O)CNC(C)(C)C)c(O)c2c1C[C@H]1C[C@H]3[C@H](N(C)C)C(=O)C(C(N)=O)=C(O)[C@@]3(O)C(=O)C1=C2O` [Tigecycline], the mCherry in test [1] turned out to be 100%. Also, the percent effect in test [2] is 1.38%.

Turning to `OCc1ccccc1O`, in test [1], the mCherry is 109%. In test [2], the percent effect is -1.99%.

The record behind these values is the supplement of paper PMC8256030.
